Source: paper PMC5705118
No constants are given. Whether binding was seen depends on the method and setting. Binding seen in cells or lysates may run through a third protein. Some entries that bind do so weakly or less than the wild type.

By UniProt entry, the sequences of proteins in these tests, tags left out. Residues count along the entry.
UniProt Q99IB8, residues 1716-1976: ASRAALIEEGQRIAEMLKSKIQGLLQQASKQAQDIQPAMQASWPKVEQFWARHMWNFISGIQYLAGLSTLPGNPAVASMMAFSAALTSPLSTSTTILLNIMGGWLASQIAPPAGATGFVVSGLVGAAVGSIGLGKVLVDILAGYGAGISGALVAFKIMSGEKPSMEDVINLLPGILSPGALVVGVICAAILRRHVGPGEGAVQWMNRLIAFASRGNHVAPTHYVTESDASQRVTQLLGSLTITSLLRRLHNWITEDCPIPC

Biological target: HCV NS4B protein, genotype 2a (SGR-Feo-JFH-1 subgenomic replicon) (hepatitis C virus genotype 2a (JFH-1)) (UniProt Q99IB8)
Test: co-IP; lysate (Cellytic MT) of Huh7.5/SGR-Feo-JFH-1 or Huh7.5 S52/SG-Feo cells; NS4B precipitated with the antibody MA17616 overnight at 4°C and Protein A agarose; washed 5x with 25 mM Tris, 150 mM NaCl; western blot for HSPB8; control without the NS4B antibody

B1: HSPB8 (Heat Shock Protein Family B Member 8) (protein, UniProt Q9UJY1 1-196)
chain: MADGQMPFSCHYPSRLRRDPFRDSPLSSRLLDDGFGMDPFPDDLTASWPDWALPRLSSAWPGTLRSGMVPRGPTATARFGVPAEGRTPPPFPGEPWKVCVNVHSFKPEELMVKTKDGYVEVSGKHEEKQQEGGIVSKNFTKKIQLPAEVDPVTVFASLSPEGLLIIEAPQVPPYSTFGESSFNNELPQDSQEVTCT
binding: binds
